According to the supplement of paper PMC8728848:
The list shows a part of the results.

Columns and labels:
Assay in all cases: glycan array binding signal (z-score within array); higher = stronger binding
Conditions in all cases: glycan notation: IUPAC condensed, linker removed
[1] = target: GalNAc(b1-4)GlcNAc(b1-2)Man
Outline: (§1)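 Negative Z-scores can be read as non-binding. The Z-score is calculated within each array and then averaged across arrays of one protein sequence at different concentrations or buffers and across linkers. Arrays, 3228 in all, were curated from the Consortium for Functional Glycomics database and kept only where the protein sequence was available.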

[2] = target: GalNAc(b1-4)GlcNAc(b1-2)Man(a1-3)[GalNAc(b1-4)GlcNAc(b1-2)Man(a1-6)]Man(b1-4)GlcNAc(b1-4)GlcNAc
Outline: as §1

[3] = target: GalNAc(b1-4)GlcNAc(b1-3)GalNAc(b1-4)GlcNAc
Outline: as §1

GalNAc(b1-4)GlcNAc6S = target: GalNAc(b1-4)GlcNAc6S
Outline: as §1

GalNAc(b1-6)GalNAc = target: GalNAc(b1-6)GalNAc
Outline: as §1

GalNAc3S(b1-4)GlcNAc = target: GalNAc3S(b1-4)GlcNAc
Outline: as §1

GalNAc3S(b1-4)GlcNAc3S = target: GalNAc3S(b1-4)GlcNAc3S
Outline: as §1

[4] = target: GalNAc3S(b1-4)[Fuc(a1-3)]GlcNAc
Outline: as §1

GalNAc4S6S(b1-4)GlcNAc = target: GalNAc4S6S(b1-4)GlcNAc
Outline: as §1

GalNAc6S(b1-4)GlcNAc = target: GalNAc6S(b1-4)GlcNAc
Outline: as §1

Glc(a1-4)Glc = target: Glc(a1-4)Glc
Outline: as §1

[5] = target: Glc(a1-4)Glc(a1-4)Glc(a1-4)Glc
Outline: as §1

Glc(a1-6)Glc(a1-6)Glc = target: Glc(a1-6)Glc(a1-6)Glc
Outline: as §1

[6] = target: Glc(a1-6)Glc(a1-6)Glc(a1-6)Glc
Outline: as §1

Glc(b1-4)Glc = target: Glc(b1-4)Glc
Outline: as §1

Glc(b1-6)Glc = target: Glc(b1-6)Glc
Outline: as §1

GlcA(b1-3)Gal = target: GlcA(b1-3)Gal
Outline: as §1

GlcA(b1-3)GlcNAc = target: GlcA(b1-3)GlcNAc
Outline: as §1

GlcA(b1-6)Gal = target: GlcA(b1-6)Gal
Outline: as §1

[7] = target: GlcA3S(b1-3)Gal(b1-4)GlcNAc(b1-2)Man
Outline: as §1

[8] = target: GlcA3S(b1-3)Gal(b1-4)GlcNAc(b1-3)Gal(b1-4)Glc
Outline: as §1

[9] = target: GlcNAc(a1-3)Gal(b1-4)GlcNAc
Outline: as §1

[10] = target: GlcNAc(a1-4)Gal(b1-3)GlcNAc
Outline: as §1

[11] = target: GlcNAc(a1-4)Gal(b1-4)GalNAc
Outline: as §1

[12] = target: GlcNAc(a1-4)Gal(b1-4)GlcNAc
Outline: as §1

[13] = target: GlcNAc(a1-4)Gal(b1-4)GlcNAc(b1-3)Gal(b1-4)Glc
Outline: as §1

[14] = target: GlcNAc(a1-4)Gal(b1-4)GlcNAc(b1-3)Gal(b1-4)GlcNAc
Outline: as §1

[15] = target: GlcNAc(a1-4)Gal(b1-4)GlcNAc(b1-3)Gal(b1-4)GlcNAc(b1-3)Gal(b1-4)GlcNAc
Outline: as §1

[16] = target: GlcNAc(a1-4)Gal(b1-4)GlcNAc(b1-3)Gal(b1-4)[Fuc(a1-3)]GlcNAc(b1-3)Gal(b1-4)[Fuc(a1-3)]GlcNAc
Outline: as §1

[17] = target: GlcNAc(a1-6)Gal(b1-4)GlcNAc
Outline: as §1

[18] = target: GlcNAc(b1-2)Gal(b1-3)GalNAc
Outline: as §1

[19] = target: GlcNAc(b1-2)Man(a1-3)[GlcNAc(b1-2)Man(a1-6)]Man(b1-4)GlcNAc(b1-4)GlcNAc
Outline: as §1

[20] = target: GlcNAc(b1-2)Man(a1-3)[GlcNAc(b1-2)Man(a1-6)]Man(b1-4)GlcNAc(b1-4)[Fuc(a1-6)]GlcNAc
Outline: as §1

[21] = target: GlcNAc(b1-2)Man(a1-3)[GlcNAc(b1-4)][GlcNAc(b1-2)Man(a1-6)]Man(b1-4)GlcNAc(b1-4)GlcNAc
Outline: as §1

[22] = target: GlcNAc(b1-2)Man(a1-3)[GlcNAc(b1-4)][GlcNAc(b1-2)Man(a1-6)]Man(b1-4)GlcNAc(b1-4)[Fuc(a1-6)]GlcNAc
Outline: as §1

[23] = target: GlcNAc(b1-2)[GlcNAc(b1-4)]Man(a1-3)[GlcNAc(b1-2)Man(a1-6)]Man(b1-4)GlcNAc(b1-4)GlcNAc
Outline: as §1

[24] = target: GlcNAc(b1-2)[GlcNAc(b1-4)]Man(a1-3)[GlcNAc(b1-4)][GlcNAc(b1-2)Man(a1-6)]Man(b1-4)GlcNAc(b1-4)GlcNAc
Outline: as §1

[25] = target: GlcNAc(b1-2)[GlcNAc(b1-4)]Man(a1-3)[GlcNAc(b1-4)][GlcNAc(b1-2)[GlcNAc(b1-6)]Man(a1-6)]Man(b1-4)GlcNAc(b1-4)GlcNAc
Outline: as §1

[26] = target: GlcNAc(b1-2)[GlcNAc(b1-4)]Man(a1-3)[GlcNAc(b1-4)][GlcNAc(b1-2)[GlcNAc(b1-6)]Man(a1-6)]Man(b1-4)GlcNAc(b1-4)[Fuc(a1-6)]GlcNAc
Outline: as §1

[27] = target: GlcNAc(b1-2)[GlcNAc(b1-6)]Man(a1-6)[GlcNAc(b1-2)Man(a1-3)]Man(b1-4)GlcNAc(b1-4)GlcNAc
Outline: as §1

[28] = target: GlcNAc(b1-2)[GlcNAc(b1-6)]Man(a1-6)[GlcNAc(b1-2)Man(a1-3)]Man(b1-4)GlcNAc(b1-4)[Fuc(a1-6)]GlcNAc
Outline: as §1

[29] = target: GlcNAc(b1-2)[GlcNAc(b1-6)]Man(a1-6)[GlcNAc(b1-4)][GlcNAc(b1-2)Man(a1-3)]Man(b1-4)GlcNAc(b1-4)GlcNAc
Outline: as §1

GlcNAc(b1-3)Fuc = target: GlcNAc(b1-3)Fuc
Outline: as §1

GlcNAc(b1-3)Gal = target: GlcNAc(b1-3)Gal
Outline: as §1

[30] = target: GlcNAc(b1-3)Gal(b1-3)GalNAc
Outline: as §1

B1: EUL D1A (Oryza sativa) (protein)
chain: MFGFGHHHNQAPAAPSDPNQIFKIFCRANENYCLTVRDSAVVLAPVNPKDEHQHWFKDMRFSTKVKDGEGMPAFALVNKATGLAVKHSLGQSHPVKLVPFNPEYEDASVLWTESKDVGKGFRCIRMVNNTRLNLDAFHGDKDHGGVRDGTTVVLWEWCKGDNQSWKILPWGPEAHSSSPGAATACTIGGVPVHTVRVFSAAGEDYCLTVRNGTACLAPKNPRDDYQHWIKDMRHSNKIRDEEGYPAFALVNKVTGEAIKHSTGQGHPVKLVPYNPEYQDESVLWTESKDVGKGFRCIRMVNNIYLNFDAFHGDKDHGGIHDGTEIVLWKWCEGDNQRWKILPWILEQKLISEEDLNSAVDHHHHHH
glycan array binding signal (z-score) [1]: -1.85 | glycan array binding signal (z-score) [2]: 0.462 | glycan array binding signal (z-score) [3]: -1.12 | glycan array binding signal (z-score) (GalNAc(b1-4)GlcNAc6S): -0.373 | glycan array binding signal (z-score) (GalNAc(b1-6)GalNAc): -0.629 | glycan array binding signal (z-score) (GalNAc3S(b1-4)GlcNAc): -0.956 | glycan array binding signal (z-score) (GalNAc3S(b1-4)GlcNAc3S): 0.381 | glycan array binding signal (z-score) [4]: 1.47 | glycan array binding signal (z-score) (GalNAc4S6S(b1-4)GlcNAc): 0.331 | glycan array binding signal (z-score) (GalNAc6S(b1-4)GlcNAc): -1.44 | glycan array binding signal (z-score) (Glc(a1-4)Glc): 0.067 | glycan array binding signal (z-score) [5]: -0.154 | glycan array binding signal (z-score) (Glc(a1-6)Glc(a1-6)Glc): -0.086 | glycan array binding signal (z-score) [6]: -0.093 | glycan array binding signal (z-score) (Glc(b1-4)Glc): -1.29 | glycan array binding signal (z-score) (Glc(b1-6)Glc): -0.654 | glycan array binding signal (z-score) (GlcA(b1-3)Gal): -0.856 | glycan array binding signal (z-score) (GlcA(b1-3)GlcNAc): 1.95 | glycan array binding signal (z-score) (GlcA(b1-6)Gal): 0.1 | glycan array binding signal (z-score) [7]: 0.196 | glycan array binding signal (z-score) [8]: -1.27 | glycan array binding signal (z-score) [9]: -0.259 | glycan array binding signal (z-score) [10]: -1.29 | glycan array binding signal (z-score) [11]: -0.573 | glycan array binding signal (z-score) [12]: 0.793 | glycan array binding signal (z-score) [13]: -0.786 | glycan array binding signal (z-score) [14]: -0.266 | glycan array binding signal (z-score) [15]: 0.051 | glycan array binding signal (z-score) [16]: 1.42 | glycan array binding signal (z-score) [17]: 2.67 | glycan array binding signal (z-score) [18]: -1.13 | glycan array binding signal (z-score) [19]: 1.36 | glycan array binding signal (z-score) [20]: 2.33 | glycan array binding signal (z-score) [21]: -0.82 | glycan array binding signal (z-score) [22]: -0.263 | glycan array binding signal (z-score) [23]: -0.636 | glycan array binding signal (z-score) [24]: -0.313 | glycan array binding signal (z-score) [25]: -1.26 | glycan array binding signal (z-score) [26]: -0.235 | glycan array binding signal (z-score) [27]: 0.231 | glycan array binding signal (z-score) [28]: 1.69 | glycan array binding signal (z-score) [29]: -0.726 | glycan array binding signal (z-score) (GlcNAc(b1-3)Fuc): 0.149 | glycan array binding signal (z-score) (GlcNAc(b1-3)Gal): 0.598 | glycan array binding signal (z-score) [30]: -0.757
